Measurements reported in the supplement of paper PMC8728848.
Some of the results follow.

Legend:
Test in all cases: glycan array binding signal (z-score within array); higher = stronger binding
Conditions in all cases: glycan notation: IUPAC condensed, linker removed
[1] = target: GlcNAc(b1-3)Gal(b1-4)GlcNAc(b1-3)Gal(b1-4)GlcNAc(b1-2)Man(a1-3)[GlcNAc(b1-3)Gal(b1-4)GlcNAc(b1-3)Gal(b1-4)GlcNAc(b1-2)Man(a1-6)]Man(b1-4)GlcNAc(b1-4)GlcNAc
Summary of the method: (§1)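 Arrays were curated from the Consortium for Functional Glycomics database, 3228 in total, and kept only where the protein sequence was available. Binding is expressed as a within-array Z-score. This score was averaged across arrays of the same protein sequence at different concentrations or buffers and across linkers, and negative values can be read as non-binding.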

[2] = target: GlcNAc(b1-3)Gal(b1-4)GlcNAc(b1-3)Gal(b1-4)GlcNAc(b1-2)Man(a1-3)[GlcNAc(b1-3)Gal(b1-4)GlcNAc(b1-3)Gal(b1-4)GlcNAc(b1-2)Man(a1-6)]Man(b1-4)GlcNAc(b1-4)[Fuc(a1-6)]GlcNAc
Summary of the method: as §1

[3] = target: GlcNAc(b1-3)Gal(b1-4)GlcNAc(b1-3)Gal(b1-4)GlcNAc(b1-2)[GlcNAc(b1-3)Gal(b1-4)GlcNAc(b1-3)Gal(b1-4)GlcNAc(b1-6)]Man(a1-6)[GlcNAc(b1-3)Gal(b1-4)GlcNAc(b1-3)Gal(b1-4)GlcNAc(b1-2)Man(a1-3)]Man(b1-4)GlcNAc(b1-4)[Fuc(a1-6)]GlcNAc
Summary of the method: as §1

[4] = target: GlcNAc(b1-3)Gal(b1-4)GlcNAc(b1-3)Gal(b1-4)GlcNAc(b1-3)Gal(b1-4)GlcNAc(b1-2)Man(a1-3)[GlcNAc(b1-3)Gal(b1-4)GlcNAc(b1-3)Gal(b1-4)GlcNAc(b1-3)Gal(b1-4)GlcNAc(b1-2)Man(a1-6)]Man(b1-4)GlcNAc(b1-4)GlcNAc
Summary of the method: as §1

[5] = target: GlcNAc(b1-3)Gal(b1-4)GlcNAc(b1-3)Gal(b1-4)GlcNAc(b1-3)Gal(b1-4)GlcNAc(b1-2)Man(a1-3)[GlcNAc(b1-3)Gal(b1-4)GlcNAc(b1-3)Gal(b1-4)GlcNAc(b1-3)Gal(b1-4)GlcNAc(b1-2)Man(a1-6)]Man(b1-4)GlcNAc(b1-4)[Fuc(a1-6)]GlcNAc
Summary of the method: as §1

[6] = target: GlcNAc(b1-3)Gal(b1-4)GlcNAc(b1-3)Gal(b1-4)GlcNAc(b1-3)Gal(b1-4)GlcNAc(b1-2)[GlcNAc(b1-3)Gal(b1-4)GlcNAc(b1-3)Gal(b1-4)GlcNAc(b1-3)Gal(b1-4)GlcNAc(b1-6)]Man(a1-6)[GlcNAc(b1-3)Gal(b1-4)GlcNAc(b1-3)Gal(b1-4)GlcNAc(b1-3)Gal(b1-4)GlcNAc(b1-2)Man(a1-3)]Man(b1-4)GlcNAc(b1-4)[Fuc(a1-6)]GlcNAc
Summary of the method: as §1

[7] = target: GlcNAc(b1-3)Gal(b1-4)GlcNAc(b1-3)Gal(b1-4)GlcNAc(b1-3)Gal(b1-4)GlcNAc(b1-3)Gal(b1-4)GlcNAc(b1-2)Man(a1-3)[GlcNAc(b1-3)Gal(b1-4)GlcNAc(b1-3)Gal(b1-4)GlcNAc(b1-3)Gal(b1-4)GlcNAc(b1-3)Gal(b1-4)GlcNAc(b1-2)Man(a1-6)]Man(b1-4)GlcNAc(b1-4)GlcNAc
Summary of the method: as §1

[8] = target: GlcNAc(b1-3)Gal(b1-4)GlcNAc(b1-3)Gal(b1-4)GlcNAc(b1-3)Gal(b1-4)GlcNAc(b1-3)Gal(b1-4)GlcNAc(b1-2)Man(a1-3)[GlcNAc(b1-3)Gal(b1-4)GlcNAc(b1-3)Gal(b1-4)GlcNAc(b1-3)Gal(b1-4)GlcNAc(b1-3)Gal(b1-4)GlcNAc(b1-2)Man(a1-6)]Man(b1-4)GlcNAc(b1-4)[Fuc(a1-6)]GlcNAc
Summary of the method: as §1

[9] = target: GlcNAc(b1-3)Gal(b1-4)GlcNAc(b1-3)Gal(b1-4)GlcNAc(b1-3)Gal(b1-4)GlcNAc(b1-3)Gal(b1-4)GlcNAc(b1-2)[GlcNAc(b1-3)Gal(b1-4)GlcNAc(b1-3)Gal(b1-4)GlcNAc(b1-3)Gal(b1-4)GlcNAc(b1-3)Gal(b1-4)GlcNAc(b1-6)]Man(a1-6)[GlcNAc(b1-3)Gal(b1-4)GlcNAc(b1-3)Gal(b1-4)GlcNAc(b1-3)Gal(b1-4)GlcNAc(b1-3)Gal(b1-4)GlcNAc(b1-2)Man(a1-3)]Man(b1-4)GlcNAc(b1-4)[Fuc(a1-6)]GlcNAc
Summary of the method: as §1

[10] = target: GlcNAc(b1-3)Gal(b1-4)GlcNAc(b1-3)Gal(b1-4)GlcNAc(b1-3)GalNAc
Summary of the method: as §1

[11] = target: GlcNAc(b1-3)Gal(b1-4)GlcNAc(b1-3)GalNAc
Summary of the method: as §1

[12] = target: GlcNAc(b1-3)Gal(b1-4)GlcNAc(b1-3)[GlcNAc(b1-3)Gal(b1-4)GlcNAc(b1-3)]GalNAc
Summary of the method: as §1

[13] = target: GlcNAc(b1-3)Gal(b1-4)GlcNAc(b1-6)[Gal(b1-3)]GalNAc
Summary of the method: as §1

[14] = target: GlcNAc(b1-3)Gal(b1-4)GlcNAc(b1-6)[GlcNAc(b1-3)Gal(b1-3)]GalNAc
Summary of the method: as §1

[15] = target: GlcNAc(b1-3)Gal(b1-4)GlcNAc(b1-6)[GlcNAc(b1-3)]Gal(b1-4)GlcNAc
Summary of the method: as §1

GlcNAc(b1-3)GalNAc = target: GlcNAc(b1-3)GalNAc
Summary of the method: as §1

GlcNAc(b1-3)Man = target: GlcNAc(b1-3)Man
Summary of the method: as §1

[16] = target: GlcNAc(b1-3)[GlcNAc(b1-4)][GlcNAc(b1-6)]GlcNAc
Summary of the method: as §1

[17] = target: GlcNAc(b1-3)[GlcNAc(b1-6)]Gal(b1-4)GlcNAc
Summary of the method: as §1

[18] = target: GlcNAc(b1-3)[GlcNAc(b1-6)]GalNAc
Summary of the method: as §1

[19] = target: GlcNAc(b1-4)Gal(b1-4)GlcNAc
Summary of the method: as §1

GlcNAc(b1-4)GlcNAc = target: GlcNAc(b1-4)GlcNAc
Summary of the method: as §1

[20] = target: GlcNAc(b1-4)GlcNAc(b1-4)GlcNAc
Summary of the method: as §1

[21] = target: GlcNAc(b1-4)GlcNAc(b1-4)GlcNAc(b1-4)GlcNAc(b1-4)GlcNAc
Summary of the method: as §1

[22] = target: GlcNAc(b1-4)GlcNAc(b1-4)GlcNAc(b1-4)GlcNAc(b1-4)GlcNAc(b1-4)GlcNAc
Summary of the method: as §1

[23] = target: GlcNAc(b1-4)[GlcNAc(b1-6)]GalNAc
Summary of the method: as §1

[24] = target: GlcNAc(b1-6)Gal(b1-4)GlcNAc
Summary of the method: as §1

GlcNAc(b1-6)GalNAc = target: GlcNAc(b1-6)GalNAc
Summary of the method: as §1

[25] = target: GlcNAc6S(b1-3)Gal(b1-4)GlcNAc
Summary of the method: as §1

Kdn(a2-3)Gal(b1-3)GalNAc = target: Kdn(a2-3)Gal(b1-3)GalNAc
Summary of the method: as §1

Kdn(a2-3)Gal(b1-3)GlcNAc = target: Kdn(a2-3)Gal(b1-3)GlcNAc
Summary of the method: as §1

Kdn(a2-3)Gal(b1-4)Glc = target: Kdn(a2-3)Gal(b1-4)Glc
Summary of the method: as §1

Kdn(a2-3)Gal(b1-4)GlcNAc = target: Kdn(a2-3)Gal(b1-4)GlcNAc
Summary of the method: as §1

[26] = target: Kdn(a2-3)Gal(b1-4)[Fuc(a1-3)]GlcNAc
Summary of the method: as §1

Kdn(a2-6)Gal(b1-4)GlcNAc = target: Kdn(a2-6)Gal(b1-4)GlcNAc
Summary of the method: as §1

[27] = target: Man(a1-2)Man(a1-2)Man(a1-3)Man
Summary of the method: as §1

[28] = target: Man(a1-2)Man(a1-2)Man(a1-6)[Man(a1-3)]Man
Summary of the method: as §1

Man(a1-2)Man(a1-3)Man = target: Man(a1-2)Man(a1-3)Man
Summary of the method: as §1

B1: Erv46-EDTA (Saccharomyces cerevisiae), P39727 (protein)
chain: MKFLVNVALVFMVVYISYIYAAAPEHHHHHHDYDIPTTENLYFQGAMDSVVTRPQLVVDRDRHAKLELNMDVTFPSMPCDLVNLDIMDDSGEMQLDILDAGFTMSRLNSEGRPVGDATELHVGGNGDGTAPVNNDPNYCGPCYGAKDQSQNENLAQEEKVCCQDCDAVRSAYLEAGWAFFDGKNIEQCEREGYVSKINEHLNEGCRIKGSAQINRIQGNLHFAPGKPYQNAYGHFHDTSLYDKTSNLNFNHIINHLSFGKPIQSHSKLLGNDKRHGGAVVATSPLDGRQVFPDRNTHFHQFSYFAKIVPTRYEYLDNVVIETAQFSATFHSRPLAGGRDKDHPNTLHVRGGIPGMFVFFEMSPLKVINKEQ
- glycan array binding signal (z-score) [1]: 3.36
- glycan array binding signal (z-score) [2]: 1.34
- glycan array binding signal (z-score) [3]: 2.19
- glycan array binding signal (z-score) [4]: 0.182
- glycan array binding signal (z-score) [5]: 1.22
- glycan array binding signal (z-score) [6]: 2.18
- glycan array binding signal (z-score) [7]: 0.573
- glycan array binding signal (z-score) [8]: 1.29
- glycan array binding signal (z-score) [9]: 0.589
- glycan array binding signal (z-score) [10]: -0.526
- glycan array binding signal (z-score) [11]: 0.565
- glycan array binding signal (z-score) [12]: 0.221
- glycan array binding signal (z-score) [13]: -0.042
- glycan array binding signal (z-score) [14]: -0.145
- glycan array binding signal (z-score) [15]: -0.431
- glycan array binding signal (z-score) (GlcNAc(b1-3)GalNAc): 0.053
- glycan array binding signal (z-score) (GlcNAc(b1-3)Man): -1.04
- glycan array binding signal (z-score) [16]: -0.123
- glycan array binding signal (z-score) [17]: -0.509
- glycan array binding signal (z-score) [18]: -0.008
- glycan array binding signal (z-score) [19]: -0.698
- glycan array binding signal (z-score) (GlcNAc(b1-4)GlcNAc): -0.626
- glycan array binding signal (z-score) [20]: -0.614
- glycan array binding signal (z-score) [21]: -0.678
- glycan array binding signal (z-score) [22]: -0.586
- glycan array binding signal (z-score) [23]: -0.451
- glycan array binding signal (z-score) [24]: -1.08
- glycan array binding signal (z-score) (GlcNAc(b1-6)GalNAc): -0.565
- glycan array binding signal (z-score) [25]: -0.923
- glycan array binding signal (z-score) (Kdn(a2-3)Gal(b1-3)GalNAc): -0.11
- glycan array binding signal (z-score) (Kdn(a2-3)Gal(b1-3)GlcNAc): -0.397
- glycan array binding signal (z-score) (Kdn(a2-3)Gal(b1-4)Glc): 0.032
- glycan array binding signal (z-score) (Kdn(a2-3)Gal(b1-4)GlcNAc): -0.571
- glycan array binding signal (z-score) [26]: 1.21
- glycan array binding signal (z-score) (Kdn(a2-6)Gal(b1-4)GlcNAc): -0.272
- glycan array binding signal (z-score) [27]: 0.434
- glycan array binding signal (z-score) [28]: -0.376
- glycan array binding signal (z-score) (Man(a1-2)Man(a1-3)Man): 0.221
